Results from the supplement of paper PMC10331698.
± gives the standard deviation of the averaged measurements. Most values lie at the level of the controls, where differences are scatter.

Assays:
Test in all cases: level (log10 ratio to DMSO vehicle control); higher = higher biomarker level / cell amount than vehicle control
[1] = compound: O=S(=O)(F)C(F)(F)C(F)(F)C(F)(F)C(F)(F)C(F)(F)C(F)(F)C(F)(F)C(F)(F)F [Perfluorooctanesulfonyl fluoride]; settings: 2200 nM; in DMSO
Protocol: (§1)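 BioMAP Diversity Plus panel of 12 human primary cell co-culture systems (3C, 4H, LPS, SAg, BT, BF4T, BE3C, CASM3C, HDF3CGF, KF3CT, MyoF, Mphg). Compounds were added 1 h before stimulation and left for 24 h (MyoF 48 h; BT 72 h for soluble read-outs or 6 d for IgG). Biomarkers were read by ELISA, cytotoxicity by SRB, PBMC viability and proliferation by Alamar Blue. Each well value was divided by the mean of 8 DMSO control wells on the same plate and log10 transformed; duplicate blinded samples were tested at 4 concentrations.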

[2] = compound: O=C(O)C(F)(F)C(F)(F)C(F)F [4H-Perfluorobutanoic acid]; settings: in DMSO
Protocol: as §1

[3] = compound: NC(=O)C(F)(F)C(F)(F)C(F)(F)C(F)F; settings: in DMSO
Protocol: as §1

[4] = compound: O=S(=O)(O)C(F)(F)C(F)(F)C(F)(F)C(F)(F)C(F)(F)C(F)(F)C(F)(F)C(F)(F)F [Perfluorooctanesulfonic acid]; settings: 2200 nM; in DMSO
Protocol: as §1

[5] = compound: OCCCCC(F)(F)C(F)(F)C(F)(F)C(F)(F)F [4:4 Fluorotelomer alcohol]; settings: 2200 nM; in DMSO
Protocol: as §1

[6] = compound: CO[Si](C)(CCC(F)(F)C(F)(F)C(F)(F)C(F)(F)C(F)(F)C(F)(F)F)OC [Dimethoxymethyl((perfluorohexyl)ethyl)silane]; settings: in DMSO
Protocol: as §1

[7] = compound: C=CC(=O)OCC(F)(F)C(F)(F)C(F)(F)C(F)(F)C(F)(F)C(F)(F)C(F)(F)F [1H,1H-Perfluorooctyl acrylate]; settings: 2200 nM; in DMSO
Protocol: as §1

[8] = compound: O=P(O)(O)CCC(F)(F)C(F)(F)C(F)(F)C(F)(F)C(F)(F)C(F)(F)F [2-(Perfluorohexyl)ethylphosphonic acid]; settings: 2200 nM; in DMSO
Protocol: as §1

[9] = compound: C=C(C)C(=O)OCC(F)(F)C(F)(F)C(F)(F)C(F)(F)C(F)(F)C(F)(F)C(F)(F)F; settings: in DMSO
Protocol: as §1

[10] = compound: FC(F)(F)C(F)(F)C(F)(F)CC1CO1 [1H,1H-Heptafluorobutyl epoxide]; settings: 2200 nM; in DMSO
Protocol: as §1

[11] = compound: C=CC(F)(F)C(F)(F)C(F)(F)C(F)(F)C(F)(F)C(F)(F)C(F)(F)C(F)(F)C=C [1,8-Divinylperfluorooctane]; settings: in DMSO
Protocol: as §1

[12] = compound: O=S(=O)(OCC(F)(F)F)C(F)(F)C(F)(F)C(F)(F)C(F)(F)F [2,2,2-Trifluoroethyl perfluorobutanesulfonate]; settings: 2200 nM; in DMSO
Protocol: as §1

[13] = compound: NS(=O)(=O)C(F)(F)C(F)(F)C(F)(F)C(F)(F)C(F)(F)C(F)(F)C(F)(F)C(F)(F)F [Perfluorooctanesulfonamide]; settings: in DMSO
Protocol: as §1

[14] = compound: O=S(=O)(O)C(F)(F)C(F)(F)C(F)(F)C(F)(F)C(F)(F)C(F)(F)C(F)(F)C(F)(F)F [Potassium perfluorooctanesulfonate]; settings: 2200 nM; in DMSO
Protocol: as §1

Pentafluoropropionamide = compound: NC(=O)C(F)(F)C(F)(F)F [Pentafluoropropionamide]; settings: 2200 nM; in DMSO
Protocol: as §1

[15] = compound: OCC(F)(F)C(F)(F)C(F)(F)C(F)(F)C(F)(F)C(F)F [1H,1H,7H-Dodecafluoro-1-heptanol]; settings: 2200 nM; in DMSO
Protocol: as §1

[16] = compound: COC(=O)C(F)(F)C(F)(F)OC(F)(C(F)(F)F)C(F)(F)OC(F)=C(F)F [Methyl perfluoro(3-(1-ethenyloxypropan-2-yloxy)propanoate)]; settings: in DMSO
Protocol: as §1

Heptafluorobutyl iodide = compound: FC(F)(F)C(F)(F)C(F)(F)CI [Heptafluorobutyl iodide]; settings: 2200 nM; in DMSO
Protocol: as §1

Test System | level (log10) [1] | level (log10) ([2]; 2200 nM) | level (log10) ([2]; 6700 nM) | level (log10) ([2]; 20000 nM) | level (log10) ([2]; 60000 nM) | level (log10) ([3]; 2200 nM) | level (log10) ([3]; 6700 nM) | level (log10) ([3]; 20000 nM) | level (log10) ([3]; 60000 nM) | level (log10) [4] | level (log10) [5] | level (log10) ([6]; 740 nM) | level (log10) ([6]; 2200 nM) | level (log10) [7] | level (log10) [8] | level (log10) ([9]; 740 nM) | level (log10) ([9]; 2200 nM) | level (log10) [10] | level (log10) ([11]; 740 nM) | level (log10) ([11]; 2200 nM) | level (log10) [12] | level (log10) ([13]; 2200 nM) | level (log10) ([13]; 6700 nM) | level (log10) ([13]; 20000 nM) | level (log10) [14] | level (log10) (Pentafluoropropionamide) | level (log10) [15] | level (log10) ([16]; 740 nM) | level (log10) ([16]; 2200 nM) | level (log10) (Heptafluorobutyl iodide)
BE3C:MMP-9 | -0.003 ± 0.018 | -0.0215 ± 0.029 | -0.0105 ± 0.019 | 0.02 ± 0.023 | -0.009 ± 0.02 | 0.0065 ± 0.03 | -0.007 ± 0.0014 | -0.0045 ± 0.0092 | 0.0095 ± 0.023 | -0.001 ± 0.028 | 0.012 | 0.0045 ± 0.00071 | -0.0265 ± 0.012 | 0.003 ± 0.037 | 0.0045 ± 0.039 | -0.0085 ± 0.019 | -0.0145 ± 0.0035 | -0.0145 ± 0.005 | 0.0045 ± 0.04 | -0.014 ± 0.047 | -0.034 ± 0.0028 | -0.052 ± 0.038 | -0.101 ± 0.016 | -0.131 ± 0.0014 | -0.008 ± 0.062 | 0.028 ± 0.03 | -0.003 ± 0.0071 | -0.0045 ± 0.047 | -0.0285 ± 0.047 | -0.0025 ± 0.019
BE3C:PAI-I | -0.0255 ± 0.00071 | 0.0025 ± 0.011 | -0.0235 ± 0.025 | -0.014 ± 0.038 | -0.0175 ± 0.023 | 0.0025 ± 0.022 | 0.0065 ± 0.0064 | -0.0055 ± 0.0035 | 0 ± 0.0028 | 0.0075 ± 0.0092 | -0.018 ± 0.0057 | 0.0135 ± 0.047 | -0.004 ± 0.02 | -0.039 ± 0.037 | -0.013 ± 0.024 | 0.004 ± 0.0071 | 0.009 ± 0.027 | 0.0235 ± 0.03 | -0.0045 ± 0.028 | -0.003 ± 0.0014 | 0.0045 ± 0.013 | -0.0455 ± 0.033 | -0.194 ± 0.03 | -0.202 ± 0.016 | 0.0125 ± 0.028 | 0.005 ± 0.0085 | -0.001 ± 0.016 | -0.0515 ± 0.0064 | -0.0305 ± 0.0078 | -0.023 ± 0.0057
BE3C:SRB | -0.006 ± 0.0042 | -0.0005 ± 0.0035 | -0.003 ± 0.0014 | -0.004 ± 0.0099 | 0.0025 ± 0.0021 | -0.0005 ± 0.0064 | -0.0035 ± 0.0035 | 0.0005 ± 0.005 | -0.0055 ± 0.0021 | 0 ± 0.023 | -0.001 ± 0.0042 | 0.001 ± 0.0014 | -0.0045 ± 0.0021 | -0.003 ± 0.0028 | 0.0055 ± 0.0064 | 0.0035 ± 0.0021 | 0.0005 ± 0.0021 | -0.002 ± 0.0042 | 0.0015 ± 0.00071 | -0.001 ± 0.0042 | 0.0025 ± 0.0021 | 0.0005 ± 0.005 | -0.0145 ± 0.0021 | -0.0315 ± 0.00071 | 0.0035 ± 0.019 | 0.0015 ± 0.0021 | -0.0005 ± 0.026 | -0.0005 ± 0.0078 | -0.012 | 0.0135 ± 0.018
